In PubChem BioAssay AID2685 (National Center for Advancing Translational Sciences (NCATS), 2010) one finds cell number change and AC50 data, which are given here for 14 molecules.

The list shows a part of the results. The main result of the screen is listed elsewhere. These columns were measured beside it and carry no call. The list favours compounds with an active or inconclusive main result. Potencies come from curve fits of mixed quality, noted in brackets.

The assay in a line: qHTS Assay for Lipid Storage Modulators in Drosophila S3 Cells.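 On cell number change: cells counted by Cell Tracker Red CMTPX staining in the red channel.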 The following applies: BODIPY lipid droplet fluorescence, 18-24 h; for cell number change: measured here: cell count max response, cells fed with added oleic acid. In a few lines:
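Drosophila S3 cells got compounds at several concentrations plus oleic acid (400 uM solution). Laser-scanning cytometry with 488 nm excitation read lipid droplets at 500-530 nm and cells at 575-640 nm. Percent activity was relative to 20 uM Triacsin C.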

Where [1] appears, read: measured here: lipid fluorescence (Fed channel) AC50, cells fed with added oleic acid.
Setting [2] is: measured here: cell number channel AC50, cells fed with added oleic acid.

Turning to `Cc1nc2c(ccc3c2ccc2nc(C)sc23)s1`, the cell number change came out at 10.3%. In addition, the AC50 under setting [1] is 6.51 nM [rising, full curve, poor fit].

With `CCOc1cccc2c1OC1(CCCCC1)N1N=C(c3cccnc3)CC21` (centres undefined), the cell number change came out at 41.7%. Further, under setting [2], the AC50 was 32600 nM [rising, single point]. In addition, under setting [1], the AC50 was 206 nM [rising, full curve, poor fit].

Take `COc1ccc(C(=S)N2CCCC2)cc1OC`: the cell number change is -60.5%. Also, the AC50 under setting [2] was 29100 nM [falling, single point]. In addition, under setting [1], the AC50 is 29100 nM [falling, single point].

With `Cc1nnc(NC(=O)C2CCN(c3nnnn3-c3ccccc3)CC2)s1`, the cell number change was -16.6%. Also, the AC50 under setting [2] was 130 nM [falling, full curve, poor fit].

Consider `C[C@H](CCC(=O)O)[C@H]1CC[C@H]2[C@@H]3[C@@H](O)C[C@@H]4C[C@H](O)CC[C@]4(C)[C@H]3CC[C@]12C`, for which the cell number change is -21.1%. The AC50 under setting [2] was 5.17 nM [falling, full curve, poor fit].

In the case of `O=C(NCCC(=O)N(Cc1ccco1)Cc1cccs1)c1ccc(Br)cc1`, the cell number change is -42.4%. Also, the AC50 under setting [2] is 29100 nM [falling, single point].

As to `CCn1c(SCC#N)nc2ccccc2c1=O`, the cell number change amounted to 16%.

In the case of `CCC(C)c1ccc(OCC(=O)Nc2ccc3c(c2)C(=O)NC3=O)cc1` (centres undefined), the cell number change is -33.7%. The AC50 under setting [2] is 14600 nM [falling, partial curve, poor fit]. In addition, the AC50 under setting [1] is 116 nM [falling, full curve, poor fit].

In the case of `CCOC(=O)C1=C(C)N=C2SC(C(=O)OC)=CC(=O)N2C1c1ccc(F)cc1` (centres undefined), the cell number change came out at 31.5%. Moreover, the AC50 under setting [2] was 32600 nM [rising, single point]. Moreover, under setting [1], the AC50 was 20600 nM [rising, partial curve, poor fit].

As for `CC(CSc1nc2ccccc2s1)Cn1c(N2CCCC2)nc2c1c(=O)[nH]c(=O)n2C` (centres undefined), the AC50 under setting [2] is 580 nM [rising, full curve] and the AC50 under setting [1] was 580 nM [rising, full curve].

For the molecule `O=C(COc1ccc2oc3c(c2c1)CCCC3)Nc1ccccn1`, the cell number change worked out at 33.6%. Under setting [2], the concentration at half-maximal activity (AC50) is 16400 nM [rising, single point]. The AC50 under setting [1] is 651 nM [falling, single point].

On to `O=C(COc1ccccc1)NCC(c1ccco1)N1CCN(c2ccccc2F)CC1` (centres undefined), for which the cell number change was found to be 6.8%. The AC50 under setting [2] is 6510 nM [rising, single point]. Moreover, the AC50 under setting [1] was 2060 nM [rising, partial curve].

As to `CCN(CC)S(=O)(=O)c1ccc2oc(C(=O)O)c(C)c2c1`, the cell number change is -7.38%. Under setting [2], the AC50 is 291 nM [falling, full curve]. Moreover, the AC50 under setting [1] was 820 nM [falling, full curve].

On to `O=C(Nc1ccncc1)c1cccc(S(=O)(=O)N2CCCC2)c1`, for which the cell number change was -10.8%. In addition, under setting [1], the AC50 is 65.1 nM [rising, single point].

As usually defined, the AC50 is the concentration at which the activity in the assay is half-maximal. Lower therefore signals activity at low concentration.
